By UniProt entry, the sequences of proteins in these tests, tags left out. Where a name states a change or a piece, a line headed by the entry shows the natural chain unless it says otherwise.
UniProt P10636: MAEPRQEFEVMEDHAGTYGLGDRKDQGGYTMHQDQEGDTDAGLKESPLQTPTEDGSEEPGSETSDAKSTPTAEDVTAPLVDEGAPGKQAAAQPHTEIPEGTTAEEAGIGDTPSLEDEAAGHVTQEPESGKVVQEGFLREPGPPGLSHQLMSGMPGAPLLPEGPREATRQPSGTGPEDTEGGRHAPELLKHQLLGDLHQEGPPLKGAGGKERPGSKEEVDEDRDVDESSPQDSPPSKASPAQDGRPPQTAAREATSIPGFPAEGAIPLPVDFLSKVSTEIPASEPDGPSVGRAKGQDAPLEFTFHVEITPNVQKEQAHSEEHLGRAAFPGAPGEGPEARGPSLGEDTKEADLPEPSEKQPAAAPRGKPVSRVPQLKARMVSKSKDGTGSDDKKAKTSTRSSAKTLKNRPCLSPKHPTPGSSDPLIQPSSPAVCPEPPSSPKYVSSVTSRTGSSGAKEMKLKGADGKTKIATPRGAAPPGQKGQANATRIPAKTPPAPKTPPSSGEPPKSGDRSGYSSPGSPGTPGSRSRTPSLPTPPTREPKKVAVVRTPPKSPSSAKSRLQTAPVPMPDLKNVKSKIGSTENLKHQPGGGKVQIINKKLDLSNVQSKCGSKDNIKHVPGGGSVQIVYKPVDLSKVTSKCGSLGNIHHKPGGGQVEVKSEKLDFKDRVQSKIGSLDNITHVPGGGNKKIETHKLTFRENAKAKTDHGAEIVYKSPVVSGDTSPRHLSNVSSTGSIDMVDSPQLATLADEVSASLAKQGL
UniProt Q8IXI2: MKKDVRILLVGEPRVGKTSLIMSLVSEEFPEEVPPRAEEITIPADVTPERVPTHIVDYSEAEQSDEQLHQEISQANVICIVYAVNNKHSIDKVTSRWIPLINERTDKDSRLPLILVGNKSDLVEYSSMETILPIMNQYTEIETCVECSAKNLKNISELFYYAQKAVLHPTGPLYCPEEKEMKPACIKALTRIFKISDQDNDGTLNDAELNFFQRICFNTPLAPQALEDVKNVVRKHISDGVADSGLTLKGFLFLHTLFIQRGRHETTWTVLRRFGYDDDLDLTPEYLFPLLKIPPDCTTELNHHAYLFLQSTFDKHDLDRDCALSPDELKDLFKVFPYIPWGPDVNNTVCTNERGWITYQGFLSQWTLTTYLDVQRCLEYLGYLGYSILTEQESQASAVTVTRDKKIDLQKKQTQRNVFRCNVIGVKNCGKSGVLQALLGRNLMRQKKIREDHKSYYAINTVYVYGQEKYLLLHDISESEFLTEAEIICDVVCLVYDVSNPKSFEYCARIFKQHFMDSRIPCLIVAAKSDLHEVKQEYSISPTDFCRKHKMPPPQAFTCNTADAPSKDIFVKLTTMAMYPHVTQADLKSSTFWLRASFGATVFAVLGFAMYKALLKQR

According to article PMC8595217:

Biological target: EGFP-tau-P301L (from pRK5-EGFP-tau-P301L) (UniProt P10636)
Experiment: co-IP; IP with anti-GFP from HEK cells transfected with EGFP-tau and Miro1 constructs; immunoblot

## Miro1 (transfected Miro1 construct) (from UniProt Q8IXI2 1-618)
  binding: no binding

These are yes or no findings as the source states them, for the method shown. Binding seen in cells or lysates may run through a third protein.
